# Data source: PubChem BioAssay AID686937 (Drosophila RNAi Screening Center, 2013)
# Screen: 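Genes in the fly needed for secretion of protein constitutively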 (primary screen)
# Cells: Drosophila S2 cells expressing secreted horseradish peroxidase
# Knock-down reagent: long dsRNA against Drosophila genes
# Duration: about 5.5 days (5 days dsRNA, then 12 h reporter induction)
# Conditions: reporter expression induced after 5 days of dsRNA, read 12 h later; inducer not stated
# Detection: 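Chemiluminescent measurement of peroxidase in the medium 12 h after reporter induction, following 5 days of dsRNA, given as a z-score per plate; higher means more secretion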
# Reading the numbers: z-score: higher = more reporter secreted into medium
# In all, the deposit lists about 23,000 reagents; this is a random part of those that have a named target and a result. 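Reduced-secretion tags in replicate 1 do not always agree with the z-scores; no criterion for assigning the tags was given.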 Reagents against one gene are numbered here. Names joined by + are all predicted targets of the reagent. Not given: the amount of reagent.
Gene,reagent no.,"z-score, replicate 1","z-score, replicate 2","z-score, replicate 3","z-score, replicate 4","phenotype, replicate 1"
CG7011,1,0.38,0.33,,,
Tango4 (Transport and Golgi organization 4),1,-4.96,-2.34,,,reduced secretion
CycG (Cyclin G),1,0.29,0.43,,,
Tmf (TATA element modulatory factor),1,0.14,0.26,,,
CG12659,1,0.07,0.55,,,
Snrk (SNF related kinase),1,0.28,0.26,,,
Lrp4 (LDL receptor related protein 4),1,0.29,0.17,,,
CG13950,1,0.31,0.24,,,
koko + Vti1b,1,0.05,0.2,,,
koko + Vti1b,2,0.35,0.3,,,
CG17929,1,0.27,0.4,,,
Osi21 (Osiris 21),1,0.47,0.16,,,
Taf10b + Taf10,1,0.32,0.34,,,
Smg5 (Smg5 nonsense mediated mRNA decay factor),1,0.59,0.16,,,
Hmx (H6-like-homeobox),1,-0.88,-0.16,,,
Hmx (H6-like-homeobox),2,0.66,0.64,,,
Hmx (H6-like-homeobox),3,-0.13,-0.17,,,
Hmx (H6-like-homeobox),4,1.75,1.41,,,
mxc (multi sex combs),1,0.52,0.59,,,
Sik2 (Salt-inducible kinase 2),1,0.33,0.43,,,
CG6847,1,-0.44,0.06,,,
CG6847,2,0.13,0.52,,,
CG43345 + CG43346,1,0.13,0.21,,,
Vps52 (Vacuolar protein sorting 52),1,0.14,0.23,,,
slp1 (sloppy paired 1),1,0.18,0.36,,,
CSN3 (COP9 signalosome subunit 3),1,-1.21,-2.11,,,
l(1)sc (lethal of scute),1,0.27,0.38,,,
lncRNA:CR43242 (long non-coding RNA:CR43242),1,0.07,0.22,,,
ppk28 (pickpocket 28),1,-0.83,-0.95,,,
CG12780,1,0.32,0.38,,,
CG15599,1,0.04,0.13,,,
Gld (Glucose dehydrogenase),1,0.25,0.31,,,
Sox102F,1,0.18,0.37,,,
mab-21,1,0.33,0.57,,,
CG13840,1,0.76,0.56,,,
Not3 (CCR4-NOT transcription complex subunit 3),1,-0.47,-0.62,,,
CG8578,1,0.1,0.19,,,
l(3)05822 (lethal (3) 05822),1,0.53,0.48,,,
lncRNA:CR43421 (long non-coding RNA:CR43421),1,0.16,-0.17,,,
Acbp3 (Acyl-CoA binding protein 3),1,0.13,0.18,,,
mars,1,-0.12,0.11,0.43,-0.17,
ms(3)76Ba (male sterile (3) 76Ba),1,0.23,0.55,,,
CheB93a (Chemosensory protein B 93a),1,0.24,0.29,,,
Rbsn-5 (Rabenosyn-5),1,0.29,0.35,,,
IA-2 (IA-2 protein tyrosine phosphatase),1,0.67,0.35,0.17,-0.31,
IA-2 (IA-2 protein tyrosine phosphatase),2,0,0.36,,,
Hs3st-B (Heparan sulfate 3-O sulfotransferase-B),1,0.53,0.24,,,
RpL13A (Ribosomal protein L13A),1,-2.51,-3.14,,,reduced secretion

A stretch taken from the entries so far, for reference:
Gene,reagent no.,"z-score, replicate 1","z-score, replicate 2","z-score, replicate 3","z-score, replicate 4","phenotype, replicate 1"
CG7011,1,0.38,0.33,,,
Tango4 (Transport and Golgi organization 4),1,-4.96,-2.34,,,reduced secretion
CycG (Cyclin G),1,0.29,0.43,,,
Tmf (TATA element modulatory factor),1,0.14,0.26,,,
CG12659,1,0.07,0.55,,,
Snrk (SNF related kinase),1,0.28,0.26,,,
Lrp4 (LDL receptor related protein 4),1,0.29,0.17,,,
CG13950,1,0.31,0.24,,,
koko + Vti1b,1,0.05,0.2,,,
koko + Vti1b,2,0.35,0.3,,,

The list goes on.
Gene,reagent no.,"z-score, replicate 1","z-score, replicate 2","z-score, replicate 3","z-score, replicate 4","phenotype, replicate 1"
CG31109,1,0.36,0.18,,,
snoRNA:Me28S-C3227a + snoRNA:Me18S-A1061 + snoRNA:Me28S-C3227b + 7 more,1,0.46,-7.39,0.29,-8.37,
CG12374,1,0.24,0.37,,,
upSET,1,0.09,0.19,,,
CG4860,1,0.23,0.38,0.52,0.15,
CG4860,2,-0.57,0.12,,,
Bx (Beadex),1,-0.41,-0.32,,,
Bx (Beadex),2,-0.08,-1.05,,,
CG11382,1,0.32,0.23,,,
nocte (no circadian temperature entrainment),1,1,0.55,,,
rgr (regular),1,0.49,0.33,,,
rgr (regular),2,0.36,0.39,,,
RpS28b (Ribosomal protein S28b),1,-2.06,-1.93,,,reduced secretion
Theg (Testicular haploid expressed gene),1,0.4,0.26,,,
Cbp20 (cap binding protein 20),1,0.19,-0.26,,,
SmD1 (Small ribonucleoprotein particle protein SmD1),1,-3.09,-2.11,,,reduced secretion
sub (subito),1,0.36,0.32,,,
CG14160,1,0.27,0.28,,,
CG13599,1,0.42,0.39,,,
ct (cut),1,0.17,-0.47,,,
Gr39a (Gustatory receptor 39a),1,0.06,0.44,,,
Gr39a (Gustatory receptor 39a),2,0,0.53,,,
GstE2 (Glutathione S transferase E2),1,0.44,0.09,,,
ND-23 (NADH dehydrogenase (ubiquinone) 23 kDa subunit),1,0.11,-0.02,,,
Sarm (Sterile alpha and Armadillo motif),1,-0.4,0.29,,,
Sarm (Sterile alpha and Armadillo motif),2,0.3,0.28,,,
Sarm (Sterile alpha and Armadillo motif),3,0.31,0.24,,,
Sarm (Sterile alpha and Armadillo motif),4,0.35,0.26,,,
Sarm (Sterile alpha and Armadillo motif),5,0.15,0.1,,,
Sarm (Sterile alpha and Armadillo motif),6,0.32,0.28,,,
CG17777,1,0.06,0.22,,,
shot (short stop),1,-1.77,-0.02,,,reduced secretion
shot (short stop),2,-0.29,0.07,,,
shot (short stop),3,0.17,0.22,,,
